The source of these data is publication doi:10.1101/740217.

Results are given in words; binding and its absence hold for the method and conditions named. Binding seen in cells or lysates may run through a third protein. Some entries that bind do so weakly or less than the wild type. Where a sequence is shown, tags or fusion partners need not be part of it.

This assay has as its target T1, FLAG-CEP97 (human Cep97, full length, 3xFLAG-tagged) (human (amplified from HEK293T cDNA)) (UniProt Q8IW35).
T1 sequence: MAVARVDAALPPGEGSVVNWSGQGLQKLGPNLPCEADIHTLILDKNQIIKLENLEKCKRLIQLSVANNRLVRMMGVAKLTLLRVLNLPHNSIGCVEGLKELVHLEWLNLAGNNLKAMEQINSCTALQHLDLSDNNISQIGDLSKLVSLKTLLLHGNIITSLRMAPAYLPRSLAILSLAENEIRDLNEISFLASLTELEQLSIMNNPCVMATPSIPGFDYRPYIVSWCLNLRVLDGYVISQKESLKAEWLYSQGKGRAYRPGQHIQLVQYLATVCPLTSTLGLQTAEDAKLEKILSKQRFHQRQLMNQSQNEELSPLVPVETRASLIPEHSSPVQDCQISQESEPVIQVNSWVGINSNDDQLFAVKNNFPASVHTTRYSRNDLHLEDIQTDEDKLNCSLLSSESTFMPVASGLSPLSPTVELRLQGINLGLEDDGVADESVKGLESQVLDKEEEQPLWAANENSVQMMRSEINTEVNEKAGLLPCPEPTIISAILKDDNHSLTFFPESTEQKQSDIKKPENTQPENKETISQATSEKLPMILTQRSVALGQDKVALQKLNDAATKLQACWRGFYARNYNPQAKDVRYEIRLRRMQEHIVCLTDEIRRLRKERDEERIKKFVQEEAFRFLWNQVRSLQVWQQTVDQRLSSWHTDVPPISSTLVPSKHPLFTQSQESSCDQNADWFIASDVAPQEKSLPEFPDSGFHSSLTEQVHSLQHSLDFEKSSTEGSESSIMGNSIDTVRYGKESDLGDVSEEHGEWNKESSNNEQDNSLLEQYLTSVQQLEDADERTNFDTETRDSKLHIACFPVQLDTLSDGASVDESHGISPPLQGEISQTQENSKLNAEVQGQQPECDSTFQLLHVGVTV
Briefly: co-IP.

B1: HA-SIRT2 (2xHA-tagged SIRT2) (protein, UniProt Q8IXJ6 1-389)
chain: MAEPDPSHPLETQAGKVQEAQDSDSDSEGGAAGGEADMDFLRNLFSQTLSLGSQKERLLDELTLEGVARYMQSERCRRVICLVGAGISTSAGIPDFRSPSTGLYDNLEKYHLPYPEAIFEISYFKKHPEPFFALAKELYPGQFKPTICHYFMRLLKDKGLLLRCYTQNIDTLERIAGLEQEDLVEAHGTFYTSHCVSASCRHEYPLSWMKEKIFSEVTPKCEDCQSLVKPDIVFFGESLPARFFSCMQSDFLKVDLLLVMGTSLQVQPFASLISKAPLSTPRLLINKEKAGQSDPFLGMIMGLGGGMDFDSKKAYRDVAWLGECDQGCLALAELLGWKKELEDLVRREHASIDAQSGAGVPNPSTSASPKKSPPPAKDEARTTEREKPQ
Turning to B1, the binding entry is reported as “binds”.
